Results reported in PubChem BioAssay AID504375 (National Center for Advancing Translational Sciences (NCATS), 2011).
Among all 1,600 compounds or so, about 25 (2%) were called active. Roughly 7% stayed inconclusive and do not appear here. Calls follow the shape of the dose curve; as a rule, active = well fitted inhibition curve with a large enough effect; inconclusive = small, poorly fitted or top-dose-only effect, or effect the other way; inactive = no such curve, though single readings can be large or run the other way. The list shows a part of the results.

By UniProt entry, the sequences of proteins in these tests, tags left out.
UniProt Q01196, whole entry, looked up: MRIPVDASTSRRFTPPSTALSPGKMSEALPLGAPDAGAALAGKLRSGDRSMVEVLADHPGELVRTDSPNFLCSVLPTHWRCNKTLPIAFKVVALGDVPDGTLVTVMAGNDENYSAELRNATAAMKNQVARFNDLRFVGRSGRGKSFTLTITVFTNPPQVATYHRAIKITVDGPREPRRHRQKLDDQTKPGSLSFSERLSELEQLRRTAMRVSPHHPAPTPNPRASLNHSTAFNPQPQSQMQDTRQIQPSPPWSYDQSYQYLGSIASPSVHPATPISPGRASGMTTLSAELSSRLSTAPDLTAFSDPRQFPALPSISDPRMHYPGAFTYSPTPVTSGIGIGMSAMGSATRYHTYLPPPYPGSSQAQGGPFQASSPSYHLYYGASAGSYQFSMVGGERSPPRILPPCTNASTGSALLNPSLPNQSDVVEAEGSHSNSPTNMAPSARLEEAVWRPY
UniProt Q13951, whole entry, looked up: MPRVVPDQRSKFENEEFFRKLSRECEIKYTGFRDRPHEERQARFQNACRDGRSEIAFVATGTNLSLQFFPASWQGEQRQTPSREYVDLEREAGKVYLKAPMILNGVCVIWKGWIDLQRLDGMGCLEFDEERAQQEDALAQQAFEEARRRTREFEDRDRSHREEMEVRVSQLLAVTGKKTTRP

Each molecule was assayed against Runt-related transcription factor 1 (Homo sapiens) + Core-binding factor subunit beta (Homo sapiens) (UniProt Q01196+Q13951) (assay: qHTS Assay for Compounds Blocking the Interaction Between CBF-beta and RUNX1 for the Treatment of Acute Myeloid Leukemia: Hit Validation with Orthogonal Assay). Conditions: CBFbeta-RUNX1 binding orthogonal assay, biochemical; series mostly up to 41 µM; activity change, negative = inhibition: at the top concentration.
Outline: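 Compound was incubated for 30 min with biotin-RUNX1 plus His6-CBF-beta at 30 nM per protein. Binding was then detected by TR-FRET between terbium anti-His antibody and 5 nM streptavidin-XL665, read after 90 min, in the same buffer as the AlphaScreen primary assay.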
% is scaled to controls: 0 for no effect and ±100 for the full control effect; potency is read from the fitted curve at half-maximal effect.

Activity change, negative = inhibition, inactive:
Cc1ccc(C(=O)N/C(=C\c2ccc(C)o2)C(=O)O)cc1 0.428%
O=c1[nH]c(CSc2cccc[n+]2[O-])nc2ccccc12 8.03%
Cc1onc(-c2c(Cl)cccc2Cl)c1C(=O)N=C(N)N1CC(C)OC(C)C1 (stereo not drawn) 0.6%
CCOC(=O)CN1NC2(CCCCCC2)NC1=S 6.84%
Nn1c(SCc2cccc(Br)c2)nnc1-c1cccnc1 7.19%
Oc1ccc2ccccc2c1C=Nc1ccccc1 27.2%
O=C(O)c1cc2ccccc2cc1Nc1ccccc1 14.8%
O=C1CC(Sc2ccc(Cl)cc2)C(=O)N1c1ccc2c(c1)OCCO2 (stereo not drawn) -14.8%
Cc1cc(C)n(CC(=O)N/N=C/c2c[nH]c3ccccc23)n1 2.59%
CC(C)(C)c1ccc(CCC2OCC(C[N+]3(C)CCOCC3)O2)cc1 (stereo not drawn) 3.25%
CC(C)(NC(=O)c1cc(Cl)c2ccccc2c1O)C(=O)O 30.7%
Nc1cc(=O)[nH]c(SCC(=O)Nc2cc(Cl)ccc2Cl)n1 8.5%
CCc1ccc(/C=N/N2CCN(c3ccccn3)CC2)cc1 -1.44%
Nc1ccc(C(=O)C(=O)c2ccc(N)cc2)cc1 8.11%
O=C(NN1C(=O)/C(=C/c2cccs2)SC1=S)c1cccnc1 33.7%
Cc1cccc(CSc2nnc([C@@H]3CCCN3)o2)c1 -12.5%
Cc1ccnn1CC(=O)N/N=C/c1cn[nH]c1-c1ccccc1 3.54%
Cc1nnc(NC(=O)c2ccccc2NC(=O)c2ccccc2)s1 -23.7%
O=C(O)CCC(=O)NCC(=O)c1ccc(F)cc1 7.94%
Cc1cccc(Nc2nc(N)nc(CCl)n2)c1 -9.59%
CC(=O)C1=C(C)OC(N)=C(C#N)C1c1cccc2ccccc12 (stereo not drawn) 6.58%
O=C1Nc2ccccc2C1(O)Cc1ccccn1 (stereo not drawn) 4.27%
Cc1nnsc1-c1nnc(SCC(=O)c2ccc(F)cc2)n1C1CC1 0.183%
CCC1(C)N=C(N)Nc2nc3cc(C)c(C)cc3n21 (stereo not drawn) 1.86%
CC(=O)Oc1ccc(C(=O)Nc2cccc(-c3nnc(-c4ccco4)o3)c2)cc1 -5.88%
CN1CCN(c2nc3ccccn3c(=O)c2/C=C(\C#N)S(=O)(=O)c2ccccc2)CC1 22.3%
CC(C)(C)c1cc(NCc2ccccn2)n2ncc(-c3ccccc3)c2n1 -6.55%
CC(=O)c1cnn(-c2ccc(Cl)c(Cl)c2Cl)c1C -8.81%
O=c1c2cc(-c3ccccc3)sc2nc2n1N=C(c1cccs1)CS2 11.4%
Cc1cc(-c2ccccc2C(=O)Nc2ccccc2O)on1 -2.53%
COC(=O)Cc1[nH]c(Cl)nc1C(N)=O -1.6%
Oc1ccc(/C=N/NC(=S)Nc2cccnc2)c(O)c1 7.04% [at 82.4 µM]

A draw from above in order of number of heavy atoms, smallest number first.
Activity change, negative = inhibition, inactive:
CCC1(C)N=C(N)Nc2nc3cc(C)c(C)cc3n21 (stereo not drawn) 1.86%
CC(=O)C1=C(C)OC(N)=C(C#N)C1c1cccc2ccccc12 (stereo not drawn) 6.58%
O=c1c2cc(-c3ccccc3)sc2nc2n1N=C(c1cccs1)CS2 11.4%

Next part.

Potency, active:
Cc1[nH]c(=O)[nH]c1C(=O)CCCCC(=O)OCC(=O)Nc1ccccn1 44.7 nM
